Experimental data as given in the supplement of paper PMC8728848.
Some of the results follow.

Experiments:
Experiment in all cases: glycan array binding signal (z-score within array); higher = stronger binding
Settings in all cases: glycan notation: IUPAC condensed, linker removed
[1] = biological target: Man(a1-2)Man(a1-3)[Man(a1-2)Man(a1-6)]Man(a1-6)[Man(a1-2)Man(a1-2)Man(a1-3)]Man
Method in brief: (§1)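 From the Consortium for Functional Glycomics database, 3228 arrays were curated, keeping only those whose protein sequence was available. Binding is given as a within-array Z-score averaged across arrays sharing a protein sequence and across linkers. Negative Z-scores can be read as non-binding.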

[2] = biological target: Man(a1-2)Man(a1-3)[Man(a1-2)Man(a1-6)]Man(a1-6)[Man(a1-2)Man(a1-2)Man(a1-3)]Man(b1-4)GlcNAc(b1-4)GlcNAc
Method in brief: as §1

[3] = biological target: Man(a1-2)Man(a1-3)[Man(a1-6)]Man(a1-6)[Man(a1-2)Man(a1-3)]Man(b1-4)GlcNAc(b1-4)GlcNAc
Method in brief: as §1

[4] = biological target: Man(a1-2)Man(a1-6)[Man(a1-3)]Man(a1-6)[Man(a1-2)Man(a1-2)Man(a1-3)]Man
Method in brief: as §1

[5] = biological target: Man(a1-2)Man(a1-6)[Man(a1-3)]Man(a1-6)[Man(a1-2)Man(a1-2)Man(a1-3)]Man(b1-4)GlcNAc(b1-4)GlcNAc
Method in brief: as §1

Man(a1-3)[Man(a1-6)]Man = biological target: Man(a1-3)[Man(a1-6)]Man
Method in brief: as §1

[6] = biological target: Man(a1-3)[Man(a1-6)]Man(a1-6)[Man(a1-2)Man(a1-3)]Man(b1-4)GlcNAc(b1-4)GlcNAc
Method in brief: as §1

[7] = biological target: Man(a1-3)[Man(a1-6)]Man(a1-6)[Man(a1-3)]Man
Method in brief: as §1

[8] = biological target: Man(a1-3)[Man(a1-6)]Man(a1-6)[Man(a1-3)]Man(b1-4)GlcNAc(b1-4)GlcNAc
Method in brief: as §1

[9] = biological target: Man(a1-3)[Man(a1-6)]Man(b1-4)GlcNAc(b1-4)GlcNAc
Method in brief: as §1

[10] = biological target: Man(a1-3)[Man(a1-6)]Man(b1-4)GlcNAc(b1-4)[Fuc(a1-6)]GlcNAc
Method in brief: as §1

Man(a1-6)Man = biological target: Man(a1-6)Man
Method in brief: as §1

Man(b1-4)GlcNAc = biological target: Man(b1-4)GlcNAc
Method in brief: as §1

MurNAc(b1-4)GlcNAc = biological target: MurNAc(b1-4)GlcNAc
Method in brief: as §1

Neu5Ac(a2-3)Gal = biological target: Neu5Ac(a2-3)Gal
Method in brief: as §1

[11] = biological target: Neu5Ac(a2-3)Gal(b1-3)GalNAc
Method in brief: as §1

[12] = biological target: Neu5Ac(a2-3)Gal(b1-3)GalNAc(b1-3)Gal(a1-4)Gal(b1-4)Glc
Method in brief: as §1

[13] = biological target: Neu5Ac(a2-3)Gal(b1-3)GalNAc(b1-4)Gal(b1-4)Glc
Method in brief: as §1

[14] = biological target: Neu5Ac(a2-3)Gal(b1-3)GalNAc(b1-4)[Neu5Ac(a2-3)]Gal(b1-4)Glc
Method in brief: as §1

[15] = biological target: Neu5Ac(a2-3)Gal(b1-3)GalNAc(b1-4)[Neu5Ac(a2-8)Neu5Ac(a2-3)]Gal(b1-4)Glc
Method in brief: as §1

[16] = biological target: Neu5Ac(a2-3)Gal(b1-3)GalNAc6S
Method in brief: as §1

[17] = biological target: Neu5Ac(a2-3)Gal(b1-3)GlcNAc
Method in brief: as §1

[18] = biological target: Neu5Ac(a2-3)Gal(b1-3)GlcNAc(b1-2)Man
Method in brief: as §1

[19] = biological target: Neu5Ac(a2-3)Gal(b1-3)GlcNAc(b1-2)Man(a1-3)[GlcNAc(b1-4)][Neu5Ac(a2-3)Gal(b1-3)GlcNAc(b1-2)Man(a1-6)]Man(b1-4)GlcNAc(b1-4)GlcNAc
Method in brief: as §1

[20] = biological target: Neu5Ac(a2-3)Gal(b1-3)GlcNAc(b1-2)Man(a1-3)[Neu5Ac(a2-3)Gal(b1-3)GlcNAc(b1-2)Man(a1-6)]Man(b1-4)GlcNAc(b1-4)GlcNAc
Method in brief: as §1

[21] = biological target: Neu5Ac(a2-3)Gal(b1-3)GlcNAc(b1-2)[Neu5Ac(a2-3)Gal(b1-3)GlcNAc(b1-4)]Man(a1-6)[Neu5Ac(a2-3)Gal(b1-3)GlcNAc(b1-2)Man(a1-3)]Man(b1-4)GlcNAc(b1-4)GlcNAc
Method in brief: as §1

[22] = biological target: Neu5Ac(a2-3)Gal(b1-3)GlcNAc(b1-3)Gal(b1-3)GlcNAc
Method in brief: as §1

[23] = biological target: Neu5Ac(a2-3)Gal(b1-3)GlcNAc(b1-3)Gal(b1-4)GlcNAc
Method in brief: as §1

[24] = biological target: Neu5Ac(a2-3)Gal(b1-3)GlcNAc(b1-3)GalNAc
Method in brief: as §1

[25] = biological target: Neu5Ac(a2-3)Gal(b1-3)GlcNAc(b1-6)GalNAc
Method in brief: as §1

B1: Awp1 (Candida glabrata) (protein)
chain: MSLITIFAFLIKATLVLSLDILTPTTLTGDQTFNEDVSVVSSLTLNDGSQYLFNNLLQIAPSSASVTANALAAVSVFTFSLPPSSSLSNSGTLIISNSNTGPSTEQHIVITPNVMANTGTITLSLAHTNTDSSSTLIIDPVTFYNTGTINYESIGSETNDPSLTGNILSIGSSGRTLQNLGTINLNAANSYYLLGTITENSGSINVQKGFLYVNALDFIGNTINLSTTTALAFISPVSQVVRVRGVFFGNIIASVGSSGTFSYNTQTGILTVTTNGVYSYDIGCGYNPALMSGQQETLSFQGNPYDTFLVLVNQPIPSDLTCAAVSSSITPSSSVEPSSSVVPSSSVEPSSSVEPSSSVEPSSSVEPSSSVEPSSSVEPSSSVEPSSSVEPSSSVEPSSSVEPSSSVEPSSSVEPSSSVEPSSSVEPSSSVEPSSSVEPSSSVEPSSSVEPSSSVEPSSLIVPSSSVEPSSSVLPSSSVVPSSSVEPSTPPIPSSSVEPSSSVVPSSPAVPSSSVEPSTPPIPSSSVVSASVFDTSSTLPSSPSVPPSSVSPSTISTPSSSAAPSSFCPTCVSSGTPPAPSSSAIVPTSSAGGGNGGDNREPGAAGQPGAAGQPGAAGQPGAAGQPGAAGQPGAAGQPGAAGQPGAAGQPGAAGQPGAAGQPGAGFGVGSEQPTPGAGAGSGSADGNQSGTGSGTGNGQQGSGQAGSGQAGSGQEGSGQAGSGQAGSGQAGSGQAGSGQAGLDNTASGQSEGGQASAMDGDQSGRDGQSNSGSLLQPNAQQGTGSGTGSDIGADQASGESPGQIGDAQPGSGTDQSSGRHSLAAEARTSQSHSLAADARTRSTTRQTSVIAPDTAPGTASGTAPGTAPGTAVVTTFHGCGTVNHKGMINILLALALLVLL
[1]
  glycan array binding signal (z-score): -0.496
[2]
  glycan array binding signal (z-score): 0.978
[3]
  glycan array binding signal (z-score): 1.36
[4]
  glycan array binding signal (z-score): -0.667
[5]
  glycan array binding signal (z-score): -0.025
Man(a1-3)[Man(a1-6)]Man
  glycan array binding signal (z-score): 0.566
[6]
  glycan array binding signal (z-score): 1.59
[7]
  glycan array binding signal (z-score): -0.14
[8]
  glycan array binding signal (z-score): -0.067
[9]
  glycan array binding signal (z-score): -0.765
[10]
  glycan array binding signal (z-score): 1.25
Man(a1-6)Man
  glycan array binding signal (z-score): 1.11
Man(b1-4)GlcNAc
  glycan array binding signal (z-score): 0.53
MurNAc(b1-4)GlcNAc
  glycan array binding signal (z-score): -1.87
Neu5Ac(a2-3)Gal
  glycan array binding signal (z-score): -0.807
[11]
  glycan array binding signal (z-score): -0.356
[12]
  glycan array binding signal (z-score): 1.12
[13]
  glycan array binding signal (z-score): -1.54
[14]
  glycan array binding signal (z-score): -1.49
[15]
  glycan array binding signal (z-score): -2.52
[16]
  glycan array binding signal (z-score): 0.204
[17]
  glycan array binding signal (z-score): -0.084
[18]
  glycan array binding signal (z-score): -0.553
[19]
  glycan array binding signal (z-score): 0.97
[20]
  glycan array binding signal (z-score): -0.553
[21]
  glycan array binding signal (z-score): -0.176
[22]
  glycan array binding signal (z-score): -0.509
[23]
  glycan array binding signal (z-score): 0.432
[24]
  glycan array binding signal (z-score): 0.909
[25]
  glycan array binding signal (z-score): 0.214
